Experimental data: PubChem BioAssay AID504764 (Drosophila RNAi Screening Center, 2011)
In all, the deposit lists about 22,000 reagents; below is an unselected part of those that have a named target and a result. In the full data, 403 (1.9%) were called active. 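Unnormalised raw counts per well; ratio z-scores behind the hit calls and whether each hit raises or lowers signal are not deposited.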 Reagent sequences are not shown. The record does not give: the amount of reagent.

Aim: 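Knock-downs that raise or lower a Notch target reporter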 (primary screen)
Cells: Drosophila Kc167 cells
Knock-down reagent: long dsRNA against Drosophila genes
Time to read-out: about 5 days (4 days dsRNA, then 24 h after transfection)
Treatment: transfection of constitutively active membrane-tethered Notch lacking the extracellular domain, read 24 h later
Detection: 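Light from a Notch-responsive E(spl)m3 luciferase reporter under active Notch, with control-promoter and no-Notch reporter wells to normalise; raw counts from paired wells a and b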
Scale: induced reporter light, run 1, well a and induced reporter light, run 1, well b: higher = more light from the Notch target reporter with active Notch; control promoter light, run 1, well a and control promoter light, run 1, well b: higher = more light from the viral control promoter (cell number, transfection, viability); uninduced reporter light, run 1, well a: higher = more light from the Notch target reporter without active Notch
Hit rule: 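Wells with low control signal or poorly matching duplicates excluded; duplicates averaged; per source plate, z beyond ±2 for induced/control log2 ratio or beyond ±1.8 for induced/uninduced marks a hit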
Meaning of the calls: active = modifier hit (raised or lowered Notch signal); inactive = not a hit

target gene | PubChem SID | induced reporter light, run 1, well a | induced reporter light, run 1, well b | control promoter light, run 1, well a | control promoter light, run 1, well b | uninduced reporter light, run 1, well a | activity call
CG13566 | SID104183995 | 2.00e5 | 1.97e5 | 1.76e5 | 1.43e5 | 13575 | inactive
CG3222 | SID104190147 | 1.59e5 | 1.04e5 | 1.72e5 | 1.56e5 | 6990 | inactive
BRWD3 | SID104195161 | 1.05e5 | 96350 | 1.27e5 | 1.41e5 | 17085 | active
BRWD3 | SID104195824 | 1.38e5 | 1.32e5 | 1.18e5 | 1.39e5 | 15292 | inactive
Cpr78Ca | SID104191443 | 1.25e5 | 1.06e5 | 1.24e5 | 1.16e5 | 8405 | inactive
CG4714 | SID104186675 | 1.32e5 | 1.67e5 | 1.99e5 | 1.41e5 | 14135 | inactive
ovo | SID104197842 | 2.98e5 | 2.77e5 | 3.53e5 | 3.49e5 | 17320 | inactive
ovo | SID104198604 | 1.68e5 | 1.40e5 | 2.79e5 | 2.98e5 | 11280 | inactive
Or71a | SID104191036 | 1.96e5 | 1.62e5 | 2.38e5 | 1.68e5 | 7070 | inactive
RluA-1 | SID104182032 | 99060 | 1.42e5 | 68420 | 97540 | 15405 | inactive
RluA-1 | SID104182852 | 1.14e5 | 1.31e5 | 67630 | 87200 | 16125 | inactive
CG11044 | SID104185818 | 92495 | 68410 | 1.03e5 | 91410 | 6032 | inactive
ninaG | SID104195894 | 68410 | 70535 | 54620 | 43085 | 5540 | inactive
CG4866 | SID104186691 | 81690 | 71285 | 1.07e5 | 91475 | 7745 | inactive
CG7714 | SID104196092 | 1.99e5 | 1.90e5 | 1.80e5 | 1.97e5 | 14910 | inactive
CG34458 | SID104186717 | 92365 | 77890 | 87305 | 1.28e5 | 6485 | inactive
CG3702 | SID104180420 | 74555 | 82315 | 51860 | 66590 | 4840 | active
Crag | SID104198246 | 1.64e5 | 1.40e5 | 1.90e5 | 1.55e5 | 10530 | inactive
lgs | SID104196944 | 1.83e5 | 1.63e5 | 2.25e5 | 2.00e5 | 13360 | inactive
CG1416 | SID104183498 | 2.29e5 | 2.18e5 | 1.70e5 | 1.93e5 | 15382 | inactive
Caf1-180 | SID104197599 | 87245 | 67500 | 97740 | 80785 | 7615 | inactive
CG11670 | SID104194134 | 3.06e5 | 3.03e5 | 2.59e5 | 2.53e5 | 19855 | inactive
srl | SID104192132 | 42680 | 30390 | 41840 | 38320 | 2932 | inactive
CG7304 | SID104190596 | 1.83e5 | 1.39e5 | 1.74e5 | 1.86e5 | 8305 | inactive

8 of these entries, set out differently:
{"target gene":"ninaG","PubChem SID":"SID104195894","induced reporter light, run 1, well a":68410,"induced reporter light, run 1, well b":70535,"control promoter light, run 1, well a":54620,"control promoter light, run 1, well b":43085,"uninduced reporter light, run 1, well a":5540,"activity call":"inactive"}
{"target gene":"CG4866","PubChem SID":"SID104186691","induced reporter light, run 1, well a":81690,"induced reporter light, run 1, well b":71285,"control promoter light, run 1, well a":1.07e5,"control promoter light, run 1, well b":91475,"uninduced reporter light, run 1, well a":7745,"activity call":"inactive"}
{"target gene":"CG7714","PubChem SID":"SID104196092","induced reporter light, run 1, well a":1.99e5,"induced reporter light, run 1, well b":1.90e5,"control promoter light, run 1, well a":1.80e5,"control promoter light, run 1, well b":1.97e5,"uninduced reporter light, run 1, well a":14910,"activity call":"inactive"}
{"target gene":"CG34458","PubChem SID":"SID104186717","induced reporter light, run 1, well a":92365,"induced reporter light, run 1, well b":77890,"control promoter light, run 1, well a":87305,"control promoter light, run 1, well b":1.28e5,"uninduced reporter light, run 1, well a":6485,"activity call":"inactive"}
{"target gene":"CG3702","PubChem SID":"SID104180420","induced reporter light, run 1, well a":74555,"induced reporter light, run 1, well b":82315,"control promoter light, run 1, well a":51860,"control promoter light, run 1, well b":66590,"uninduced reporter light, run 1, well a":4840,"activity call":"active"}
{"target gene":"Crag","PubChem SID":"SID104198246","induced reporter light, run 1, well a":1.64e5,"induced reporter light, run 1, well b":1.40e5,"control promoter light, run 1, well a":1.90e5,"control promoter light, run 1, well b":1.55e5,"uninduced reporter light, run 1, well a":10530,"activity call":"inactive"}
{"target gene":"lgs","PubChem SID":"SID104196944","induced reporter light, run 1, well a":1.83e5,"induced reporter light, run 1, well b":1.63e5,"control promoter light, run 1, well a":2.25e5,"control promoter light, run 1, well b":2.00e5,"uninduced reporter light, run 1, well a":13360,"activity call":"inactive"}
{"target gene":"CG1416","PubChem SID":"SID104183498","induced reporter light, run 1, well a":2.29e5,"induced reporter light, run 1, well b":2.18e5,"control promoter light, run 1, well a":1.70e5,"control promoter light, run 1, well b":1.93e5,"uninduced reporter light, run 1, well a":15382,"activity call":"inactive"}

The list goes on:
target gene | PubChem SID | induced reporter light, run 1, well a | induced reporter light, run 1, well b | control promoter light, run 1, well a | control promoter light, run 1, well b | uninduced reporter light, run 1, well a | activity call
CG13065 | SID104189740 | 1.73e5 | 1.79e5 | 2.02e5 | 2.38e5 | 9175 | inactive
Naa60 | SID104190093 | 1.28e5 | 1.21e5 | 1.63e5 | 1.50e5 | 9210 | inactive
Atg4b | SID104195780 | 2.04e5 | 2.02e5 | 1.46e5 | 1.22e5 | 9570 | inactive
CG4041 | SID104198131 | 1.22e5 | 1.32e5 | 2.41e5 | 2.01e5 | 9880 | inactive
Prosalpha4T2 | SID104184435 | 1.61e5 | 1.52e5 | 1.47e5 | 1.43e5 | 9755 | inactive
Zdhhc8 | SID104197836 | 26165 | 27955 | 36185 | 29515 | 4110 | inactive
Zdhhc8 | SID104197914 | 1.03e5 | 84180 | 2.01e5 | 2.05e5 | 7270 | inactive
mbt | SID104200140 | 25025 | 23715 | 25480 | 20660 | 7888 | inactive
CG12795 | SID104180146 | 2.05e5 | 1.89e5 | 2.06e5 | 2.24e5 | 13795 | inactive
CG33233 | SID104188031 | 1.10e5 | 1.18e5 | 1.81e5 | 2.91e5 | 9425 | inactive
CG15186 | SID104192358 | 82400 | 88450 | 70865 | 68345 | 5925 | inactive
CG3625 | SID104179800 | 1.01e5 | 1.00e5 | 1.65e5 | 1.80e5 | 8480 | inactive
CG3625 | SID104180413 | 2.03e5 | 2.29e5 | 1.64e5 | 1.90e5 | 22020 | inactive
Nach | SID104187270 | 1.06e5 | 80465 | 1.06e5 | 1.32e5 | 10885 | inactive
CG3713 | SID104198440 | 1.49e5 | 1.50e5 | 2.46e5 | 2.05e5 | 10280 | inactive
CG15120 | SID104186334 | 44155 | 33465 | 48585 | 49000 | 3780 | inactive
GAPsec | SID104190356 | 1.07e5 | 97280 | 92070 | 24060 | 9240 | inactive
Cyp313a4 | SID104196419 | 91455 | 68435 | 83920 | 87570 | 5845 | inactive
CG9062 | SID104187119 | 1.07e5 | 91140 | 1.26e5 | 92550 | 9950 | inactive
Muc12Ea | SID104199729 | 70630 | 70610 | 1.03e5 | 60120 | 13690 | inactive
CG13377 | SID104198414 | 1.12e5 | 1.17e5 | 2.14e5 | 2.49e5 | 9310 | inactive
JMJD7 | SID104189495 | 2.74e5 | 2.50e5 | 3.19e5 | 3.36e5 | 14485 | inactive
CG8343 | SID104184697 | 1.68e5 | 1.53e5 | 1.41e5 | 1.52e5 | 12635 | inactive
RunxA | SID104200192 | 85140 | 77715 | 90765 | 1.11e5 | 6710 | inactive
RunxA | SID104200290 | 17230 | 15370 | 7130 | 8475 | 5110 | inactive
RunxA | SID104200316 | 90515 | 1.05e5 | 1.46e5 | 1.45e5 | 13850 | inactive
